Results deposited as PubChem BioAssay AID504786 (Drosophila RNAi Screening Center, 2011).
The screen tested about 21,000 reagents; below is an unselected part of those with a known target gene and a result. 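Primary screen; positive scores mean lost reporter signal, so the sign may be inverted from the usual convention.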 A plus sign joins genes that one reagent is predicted to hit.

Screen: 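Positive regulators of HIF-driven reporter output in Drosophila cells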 (primary screen)
Cells: Drosophila S2 cells with a stable HIF luciferase reporter
Knock-down reagent: long dsRNA against Drosophila genes, about 0.2 µg dsRNA per well of a 384-well plate
Timing: three days of knock-down, then 20 h of DFO before reading
Treatment: desferrioxamine (DFO) at 100 µM, an iron chelator that mimics hypoxia, for 20 h
Measurement: 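HIF reporter luminescence in cells given 100 µM DFO for 20 h, using the mouse ldh-a hypoxia-response element, scored as per-plate z-scores; higher means greater loss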
Scale: z-score: higher = stronger loss of HIF reporter signal

no.	gene	dsRNA	z-score, replicate 1	z-score, replicate 2	z-score, replicate 3	z-score, replicate 4
1	Pi3K21B (GeneID 33203)	DRSC00771	-0.3	-0.5		
2	Mp (GeneID 38769)	DRSC10193	-0.3	-0.6		
3	Mp (GeneID 38769)	DRSC11029	-0.3	-0.6		
4	Mp (GeneID 38769)	DRSC11030	-0.5	-1		
5	CG7131 (GeneID 42197)	DRSC16203	-0.1	0.1		
6	CG14177 (retired record) (GeneID 39113)	DRSC10176	-0.3	-0.2		
7	CG11286 (GeneID 40919)	DRSC14293	-0.3	-0.6		
8	Dph3 (GeneID 41352)	DRSC14923	-0.3	-0.3		
9	B52 (GeneID 41670)	DRSC14121	-0.3	-0.2		
10	CG9095 (GeneID 32447)	DRSC20150	0.1	-0.5		
11	CG5122 (GeneID 34703)	DRSC02816	-0.4	-0.1		
12	TwdlU (GeneID 5740279)	DRSC12224	0	-0.5		
13	CG13155 (GeneID 36346)	DRSC06280	-0.2	-0.2		
14	vret (GeneID 42695)	DRSC15640	-0.3	-0.6		
15	CG40948 (retired record) (GeneID 5740550)	DRSC20944	0.3	-0.1		
16	Gr63a (GeneID 38453)	DRSC08438	-0.2	-0.3		
17	CG17049 (retired record) (GeneID 36483)	DRSC06650	-0.3	-0.5		
18	Efhc1.1 (GeneID 32528)	DRSC20135	-0.2	-0.7		
19	cu (GeneID 41339)	DRSC15643	0	0		
20	cu (GeneID 41339)	DRSC15648	-0.3	0		
21	Idgf5 (GeneID 37104)	DRSC06919	0	0.1		
22	CG14613 (GeneID 33133)	DRSC20625	-0.3	-0.5		
23	bru2 (GeneID 250811)	DRSC01246	0.4	0.1		
24	bru2 (GeneID 250811)	DRSC01247	2	2.4		
25	bru2 (GeneID 250811)	DRSC01249	0.1	-0.2		
26	bru2 (GeneID 250811)	DRSC01250	-0.3	-0.5		
27	bru2 (GeneID 250811)	DRSC02557	4.6	2.8		
28	CG12507 (GeneID 32580)	DRSC19463	-0.1	0.7		
29	Galphaq (GeneID 36384)	DRSC07432	-0.4	-0.6		
30	Ptpmeg2 (GeneID 31907)	DRSC18277	-0.4	-0.7		
31	Ptpmeg2 (GeneID 31907)	DRSC18278	-0.3	-0.6		
32	CG14417 (GeneID 31274)	DRSC18638	-0.2	-0.3		
33	Polr2L (GeneID 42942)	DRSC14630	0	0		
34	sns (GeneID 44097)	DRSC06423	0.6	3.3		
35	sns (GeneID 44097)	DRSC07687	0.1	0.9		
36	sns (GeneID 44097)	DRSC07688	-1	-0.4		
37	sns (GeneID 44097)	DRSC07689	-0.2	-0.1		
38	sns (GeneID 44097)	DRSC07691	-0.3	-0.2		
39	sns (GeneID 44097)	DRSC07692	-0.1	-0.2		
40	Atg3 (GeneID 40044)	DRSC10736	-0.3	-0.4	-0.4	-0.4
41	CG11726 (GeneID 39275)	DRSC09858	-0.2	0		
42	kune (GeneID 35504)	DRSC04860	0	-0.2		
43	CRAT (GeneID 40787)	DRSC12523	-0.3	-0.2		
44	CG11110 (GeneID 37337)	DRSC06037	0.1	-0.4		
45	CG3473 (GeneID 34849)	DRSC01915	-0.2	-0.4		
46	Cpr65Ec (GeneID 38775)	DRSC11025	-0.4	-0.6		
47	Jhbp14 (GeneID 34728)	DRSC01988	0.1	-0.5		
48	CG15822 (GeneID 38273)	DRSC08482	-0.1	-0.5		
49	CG15822 (GeneID 38273)	DRSC08483	-0.5	0.9		
50	fred (GeneID 33613)	DRSC00349	-0.4	-0.7		
51	fred (GeneID 33613)	DRSC00599	-0.4	0	-0.5	-0.3
52	fred (GeneID 33613)	DRSC00601	-0.1	-0.4		
53	fred (GeneID 33613)	DRSC00602	-0.4	0		
54	CG13046 (GeneID 39791)	DRSC09927	-0.3	0.1		
55	Tdh (GeneID 40268)	DRSC11788	0.1	0.2		
56	TwdlB (GeneID 43202)	DRSC16050	-0.1	0.2		
57	robls54B (GeneID 5740248)	DRSC05660	-0.4	-0.1		
58	CG6664 (GeneID 39903)	DRSC10690	-0.3	-0.7		
59	CG33460 (GeneID 3885588)	DRSC05570	-0.2	-0.2		
60	mirr (GeneID 39441)	DRSC11369	-0.2	-0.4		
61	CCHa2-R (GeneID 35535)	DRSC04825	0.4	0		
62	CCHa2-R (GeneID 35535)	DRSC04870	0	-0.2		
63	CCHa2-R (GeneID 35535)	DRSC04871	0.2	-0.7		
64	CG43775 (GeneID 37863)	DRSC04206	-0.2	-0.3		
65	Tk (GeneID 41456)	DRSC14954	-0.3	0.2	0.7	0.2
66	CG43707 (GeneID 33601)	DRSC00280	-0.4	-0.7		
67	CG32643 (GeneID 318138)	DRSC18962	-0.3	-0.3		
68	CG4757 (GeneID 41330)	DRSC14130	-0.2	0.1		
69	RpS25 (GeneID 41343)	DRSC16837	0.7	1.4		
70	Cc2d2a (GeneID 36982)	DRSC06750	-0.2	-0.4		
71	Cc2d2a (GeneID 36982)	DRSC06779	-0.3	-0.3		
72	CG12684 (GeneID 31390)	DRSC17875	-0.3	-0.2		
73	fipi (GeneID 33676)	DRSC00465	2.2	3.7		
74	alien + CG17906	DRSC02641	-0.3	-0.1		
75	GlcAT-I (GeneID 251900)	DRSC17307	0.2	0.1		
76	kis (GeneID 33185)	DRSC00521	-0.3	-0.4		
77	kis (GeneID 33185)	DRSC00625	1.6	2		
78	kis (GeneID 33185)	DRSC00823	1	1.7		
79	CG31689 (GeneID 326154)	DRSC00734	0.1	0.5		
80	CG8584 (GeneID 35856)	DRSC07217	-0.3	-0.1		
81	CG9166 (GeneID 38161)	DRSC07842	0	0.6		
82	CG14985 (GeneID 38470)	DRSC08078	-0.2	-0.2		
83	CG14985 (GeneID 38470)	DRSC08443	-0.4	-0.4		

7 entries from above, limited to “z-score, replicate 1”:
Cc2d2a (GeneID 36982) [DRSC06750]: -0.2
Cc2d2a (GeneID 36982) [DRSC06779]: -0.3
CG12684 (GeneID 31390) [DRSC17875]: -0.3
fipi (GeneID 33676) [DRSC00465]: 2.2
alien + CG17906 [DRSC02641]: -0.3
GlcAT-I (GeneID 251900) [DRSC17307]: 0.2
kis (GeneID 33185) [DRSC00521]: -0.3
